Measurements reported in patent publication US20060034833A1 (published 2006).
These are yes or no findings as the source states them, for the method shown. Some binding calls cover weakened binding; strength is not graded here.

Amino acid sequences for entries named in this document (tags omitted). Residues count along the entry.
UniProt P01579, residues 24-166: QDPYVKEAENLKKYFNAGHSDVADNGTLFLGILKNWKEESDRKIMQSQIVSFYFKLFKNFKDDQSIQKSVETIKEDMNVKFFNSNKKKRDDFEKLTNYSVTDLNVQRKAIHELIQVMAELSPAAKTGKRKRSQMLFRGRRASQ

Target: T1, human IFN-γ receptor (IFN-γ R1) (human) (UniProt P15260)
T1 sequence (looked up): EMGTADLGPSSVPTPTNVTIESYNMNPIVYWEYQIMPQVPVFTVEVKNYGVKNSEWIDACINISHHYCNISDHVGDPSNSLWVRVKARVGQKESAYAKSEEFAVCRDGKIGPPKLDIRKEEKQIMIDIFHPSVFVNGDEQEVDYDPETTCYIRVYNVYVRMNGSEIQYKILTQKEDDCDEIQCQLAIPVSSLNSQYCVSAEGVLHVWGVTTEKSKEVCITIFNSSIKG
Test: ELISA: biotinylated human IFN-γ on coated human IFN-γ R1, Extravidin-AP

## human IFN-gamma (from UniProt P01579 24-166) (ligand)
  binding: binds
